Like-named read-outs stand apart in the source and are kept apart here. No constants are given. Whether binding was seen depends on the method and setting. In cells and extracts the contact can be indirect. Some binding calls cover weakened binding; strength is not graded here. Where a sequence is shown, tags or fusion partners need not be part of it. Values belong to the molecule of their own block, whether it stands above or below them.
Assays:
Assay in all cases: co-IP; HEK293T cells co-transfected, harvested 36-48 h later; lysates in Tris-buffered saline pH 7.4 (50 mM Tris-HCl, 150 mM NaCl, 1% NP-40, 1% sodium deoxycholate, 2 mM EDTA), 4°C; immunoprecipitation with HA monoclonal antibodies coupled to agarose beads for 2 h, 4-6 washes, immunoblotting
[1] = biological target: T1, Clmp ECD-TM (HA-tagged deletion variant of human Clmp lacking aa 317-373) (human) (UniProt Q9H6B4)
T1 sequence: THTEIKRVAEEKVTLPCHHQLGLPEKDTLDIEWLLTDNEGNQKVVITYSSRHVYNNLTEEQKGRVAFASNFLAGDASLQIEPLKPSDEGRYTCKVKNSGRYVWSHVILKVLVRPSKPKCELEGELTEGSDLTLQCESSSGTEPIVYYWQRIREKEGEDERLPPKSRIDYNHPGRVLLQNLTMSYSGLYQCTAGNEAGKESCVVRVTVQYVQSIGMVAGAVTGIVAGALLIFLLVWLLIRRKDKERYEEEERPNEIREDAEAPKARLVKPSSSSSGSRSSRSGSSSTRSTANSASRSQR

Amino acid sequences for entries named in this document (tags omitted). Residues count along the entry.
UniProt P19490, residues 19-907: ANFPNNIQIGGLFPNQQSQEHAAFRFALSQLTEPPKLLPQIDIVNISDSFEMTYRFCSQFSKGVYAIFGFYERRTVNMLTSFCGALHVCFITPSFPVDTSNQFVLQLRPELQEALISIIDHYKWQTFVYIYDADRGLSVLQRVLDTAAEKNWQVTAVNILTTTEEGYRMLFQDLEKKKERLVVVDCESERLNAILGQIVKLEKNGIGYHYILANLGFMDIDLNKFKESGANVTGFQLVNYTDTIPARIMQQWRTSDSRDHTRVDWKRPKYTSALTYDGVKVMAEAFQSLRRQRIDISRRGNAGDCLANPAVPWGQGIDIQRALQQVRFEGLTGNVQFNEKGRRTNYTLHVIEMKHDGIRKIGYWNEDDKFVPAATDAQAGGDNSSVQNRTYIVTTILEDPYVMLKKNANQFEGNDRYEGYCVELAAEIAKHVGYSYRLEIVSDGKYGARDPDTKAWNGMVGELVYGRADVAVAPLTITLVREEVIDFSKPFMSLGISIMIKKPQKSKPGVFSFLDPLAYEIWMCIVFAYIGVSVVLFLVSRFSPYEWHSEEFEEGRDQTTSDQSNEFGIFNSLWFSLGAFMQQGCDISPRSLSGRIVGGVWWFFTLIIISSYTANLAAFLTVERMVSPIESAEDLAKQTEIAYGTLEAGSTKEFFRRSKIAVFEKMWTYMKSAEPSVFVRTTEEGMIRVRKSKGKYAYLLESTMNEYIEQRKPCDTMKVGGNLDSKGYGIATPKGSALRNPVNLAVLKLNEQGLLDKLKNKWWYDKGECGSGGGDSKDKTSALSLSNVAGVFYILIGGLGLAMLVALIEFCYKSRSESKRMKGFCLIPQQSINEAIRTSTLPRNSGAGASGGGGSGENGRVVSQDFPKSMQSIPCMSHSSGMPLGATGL
UniProt P19491, residues 22-883: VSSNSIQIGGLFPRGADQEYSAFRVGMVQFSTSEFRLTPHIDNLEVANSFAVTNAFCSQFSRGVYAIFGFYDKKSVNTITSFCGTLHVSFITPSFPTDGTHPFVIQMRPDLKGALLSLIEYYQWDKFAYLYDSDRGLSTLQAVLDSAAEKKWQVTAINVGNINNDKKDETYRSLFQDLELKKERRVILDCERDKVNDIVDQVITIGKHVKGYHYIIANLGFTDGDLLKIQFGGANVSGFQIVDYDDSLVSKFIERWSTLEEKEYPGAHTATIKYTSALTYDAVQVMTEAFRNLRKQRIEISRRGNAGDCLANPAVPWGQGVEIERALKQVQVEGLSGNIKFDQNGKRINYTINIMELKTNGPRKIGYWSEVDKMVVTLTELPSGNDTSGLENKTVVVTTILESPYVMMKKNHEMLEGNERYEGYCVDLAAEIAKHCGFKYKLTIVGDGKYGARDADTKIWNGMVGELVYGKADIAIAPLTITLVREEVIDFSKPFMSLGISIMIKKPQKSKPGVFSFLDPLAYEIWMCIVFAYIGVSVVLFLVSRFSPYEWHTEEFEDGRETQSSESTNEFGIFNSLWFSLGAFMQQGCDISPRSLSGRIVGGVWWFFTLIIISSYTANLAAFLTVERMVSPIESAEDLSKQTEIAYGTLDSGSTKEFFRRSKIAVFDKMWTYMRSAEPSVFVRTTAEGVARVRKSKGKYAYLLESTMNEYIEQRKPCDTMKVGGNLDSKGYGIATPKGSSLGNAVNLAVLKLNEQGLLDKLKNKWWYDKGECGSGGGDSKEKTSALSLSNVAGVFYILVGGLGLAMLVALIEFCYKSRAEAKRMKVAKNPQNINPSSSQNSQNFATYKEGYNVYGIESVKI
UniProt P42260, residues 32-908: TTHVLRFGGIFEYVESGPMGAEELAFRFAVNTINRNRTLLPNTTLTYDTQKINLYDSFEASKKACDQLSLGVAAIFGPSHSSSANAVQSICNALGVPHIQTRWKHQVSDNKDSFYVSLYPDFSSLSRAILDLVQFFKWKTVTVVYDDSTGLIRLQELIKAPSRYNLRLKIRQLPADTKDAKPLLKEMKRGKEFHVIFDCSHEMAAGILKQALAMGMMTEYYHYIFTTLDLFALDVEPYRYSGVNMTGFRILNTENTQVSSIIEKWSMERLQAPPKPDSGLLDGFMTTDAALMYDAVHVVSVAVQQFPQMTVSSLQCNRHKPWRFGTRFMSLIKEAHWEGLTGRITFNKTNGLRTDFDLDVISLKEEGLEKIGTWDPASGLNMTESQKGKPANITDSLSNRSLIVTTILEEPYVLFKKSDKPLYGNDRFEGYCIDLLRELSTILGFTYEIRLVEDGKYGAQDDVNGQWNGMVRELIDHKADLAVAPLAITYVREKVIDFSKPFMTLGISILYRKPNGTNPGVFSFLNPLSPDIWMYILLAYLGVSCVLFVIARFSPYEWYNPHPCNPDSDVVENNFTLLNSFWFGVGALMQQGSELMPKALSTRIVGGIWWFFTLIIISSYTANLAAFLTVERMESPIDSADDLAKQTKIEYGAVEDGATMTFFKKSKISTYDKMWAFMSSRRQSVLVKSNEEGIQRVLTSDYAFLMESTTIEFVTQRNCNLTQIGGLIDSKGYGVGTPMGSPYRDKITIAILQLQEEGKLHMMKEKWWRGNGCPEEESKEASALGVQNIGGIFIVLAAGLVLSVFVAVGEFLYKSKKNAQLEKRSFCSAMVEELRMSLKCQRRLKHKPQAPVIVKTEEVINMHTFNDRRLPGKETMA

[2] = biological target: T2, HA-Clmp (full-length human Clmp, CXADR-like membrane protein) (human) (UniProt Q9H6B4)
T2 sequence: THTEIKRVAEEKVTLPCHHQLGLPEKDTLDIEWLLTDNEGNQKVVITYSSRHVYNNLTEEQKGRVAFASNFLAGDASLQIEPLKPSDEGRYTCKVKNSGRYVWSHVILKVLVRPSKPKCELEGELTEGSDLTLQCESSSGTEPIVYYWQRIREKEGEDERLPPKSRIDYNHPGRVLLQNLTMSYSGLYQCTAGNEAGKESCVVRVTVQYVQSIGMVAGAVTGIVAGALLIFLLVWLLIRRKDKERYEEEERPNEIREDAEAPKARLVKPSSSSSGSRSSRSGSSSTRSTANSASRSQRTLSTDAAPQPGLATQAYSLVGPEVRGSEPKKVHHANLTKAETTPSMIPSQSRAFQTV

[3] = biological target: T1, Clmp ECD-TM (HA-tagged deletion variant of human Clmp lacking aa 317-373) (human); remark: listed apart in the source
[4] = biological target: T2, HA-Clmp (full-length human Clmp, CXADR-like membrane protein) (human); remark: listed apart in the source

binding [1]: binds
binding [2]: binds
Molecule: GluA1 subunit of AMPA receptors (from UniProt P19490 19-907)

binding [1]: binds
binding [2]: binds
Molecule: GluA2 subunit of AMPA receptors (from UniProt P19491 22-883)

binding [1]: binds
binding [2]: binds
Molecule: GluK2 subunit of kainate receptors (from UniProt P42260 32-908)

binding [3]: binds
binding [4]: binds
B1: GluK5 subunit of kainate receptors (receptor, UniProt Q63273 15-979)
chain: NPSCQVLSSLRMAAILDDQTVCGRGERLALALAREQINGIIEVPAKARVEVDIFELQRDSQYETTDTMCQILPKGVVSVLGPSSSPASASTVSHICGEKEIPHIKVGPEETPRLQYLRFASVSLYPSNEDVSLAVSRILKSFNYPSASLICAKAECLLRLEELVRGFLISKETLSVRMLDDSRDPTPLLKEIRDDKVSTIIIDANASISHLVLRKASELGMTSAFYKYILTTMDFPILHLDGIVEDSSNILGFSMFNTSHPFYPEFVRSLNMSWRENCEASTYPGPALSAALMFDAVHVVVSAVRELNRSQEIGVKPLACTSANIWPHGTSLMNYLRMVEYDGLTGRVEFNSKGQRTNYTLRILEKSRQGHREIGVWYSNRTLAMNATTLDINLSQTLANKTLVVTTILENPYVMRRPNFQALSGNERFEGFCVDMLRELAELLRFRYRLRLVEDGLYGAPEPNGSWTGMVGELINRKADLAVAAFTITAEREKVIDFSKPFMTLGISILYRVHMGRKPGYFSFLDPFSPAVWLFMLLAYLAVSCVLFLAARLSPYEWYNPHPCLRARPHILENQYTLGNSLWFPVGGFMQQGSEIMPRALSTRCVSGVWWAFTLIIISSYTANLAAFLTVQRMEVPVESADDLADQTNIEYGTIHAGSTMTFFQNSRYQTYQRMWNYMQSKQPSVFVKSTEEGIARVLNSRYAFLLESTMNEYHRRLNCNLTQIGGLLDTKGYGIGMPLGSPFRDEITLAILQLQENNRLEILKRKWWEGGRCPKEEDHRAKGLGMENIGGIFVVLICGLIIAVFVAVMEFIWSTRRSAESEEVSVCQEMLQELRHAVSCRKTSRSRRRRRPGGPSRALLSLRAVREMRLSNGKLYSAGAGGDAGAHGGPQRLLDDPGPPGGPRPQAPTPCTHVRVCQECRRIQALRASGAGAPPRGLGTPAEATSPPRPRPGPTGPRELTEHE

Reference: article PMC7779639
